{
  "sequences": {"note": "Chains of the proteins cited; added tags and fusions are not shown.", "UniProt O88444": "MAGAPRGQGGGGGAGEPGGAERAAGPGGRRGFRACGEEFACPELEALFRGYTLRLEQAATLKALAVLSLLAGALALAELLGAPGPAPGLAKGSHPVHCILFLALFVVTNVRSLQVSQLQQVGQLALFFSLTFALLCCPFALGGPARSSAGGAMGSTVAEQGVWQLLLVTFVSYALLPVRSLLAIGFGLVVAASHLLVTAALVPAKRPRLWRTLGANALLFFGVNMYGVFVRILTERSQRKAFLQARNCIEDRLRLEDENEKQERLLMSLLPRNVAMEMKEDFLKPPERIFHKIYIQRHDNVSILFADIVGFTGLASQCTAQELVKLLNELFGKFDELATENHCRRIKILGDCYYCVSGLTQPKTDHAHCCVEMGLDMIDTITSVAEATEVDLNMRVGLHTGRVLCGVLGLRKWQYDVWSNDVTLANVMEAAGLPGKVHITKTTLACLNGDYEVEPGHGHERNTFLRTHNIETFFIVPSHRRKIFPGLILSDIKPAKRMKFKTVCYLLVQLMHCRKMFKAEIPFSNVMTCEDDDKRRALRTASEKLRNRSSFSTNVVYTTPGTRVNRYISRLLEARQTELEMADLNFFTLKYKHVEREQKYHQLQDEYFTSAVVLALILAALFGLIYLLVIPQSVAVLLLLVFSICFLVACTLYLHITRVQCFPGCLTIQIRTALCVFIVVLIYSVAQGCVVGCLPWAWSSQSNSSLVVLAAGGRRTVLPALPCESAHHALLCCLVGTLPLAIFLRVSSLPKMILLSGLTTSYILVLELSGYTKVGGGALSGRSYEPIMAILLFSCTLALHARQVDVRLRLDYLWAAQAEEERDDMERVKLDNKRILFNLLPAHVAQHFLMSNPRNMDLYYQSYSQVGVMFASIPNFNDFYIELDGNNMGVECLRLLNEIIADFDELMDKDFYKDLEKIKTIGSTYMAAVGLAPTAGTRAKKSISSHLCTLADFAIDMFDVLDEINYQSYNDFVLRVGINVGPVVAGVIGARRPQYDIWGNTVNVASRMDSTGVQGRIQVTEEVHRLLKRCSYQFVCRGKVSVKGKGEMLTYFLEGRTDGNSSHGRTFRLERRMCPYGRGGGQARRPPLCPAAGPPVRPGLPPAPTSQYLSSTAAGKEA"},
  "source": "paper PMC9307837",
  "molecular_target": "T1, Calcium/calmodulin-dependent protein kinase IV (CaMK4), mouse (mouse (endogenous in RAW264.7 and BMDMs)) (UniProt P08414)",
  "T1 sequence": "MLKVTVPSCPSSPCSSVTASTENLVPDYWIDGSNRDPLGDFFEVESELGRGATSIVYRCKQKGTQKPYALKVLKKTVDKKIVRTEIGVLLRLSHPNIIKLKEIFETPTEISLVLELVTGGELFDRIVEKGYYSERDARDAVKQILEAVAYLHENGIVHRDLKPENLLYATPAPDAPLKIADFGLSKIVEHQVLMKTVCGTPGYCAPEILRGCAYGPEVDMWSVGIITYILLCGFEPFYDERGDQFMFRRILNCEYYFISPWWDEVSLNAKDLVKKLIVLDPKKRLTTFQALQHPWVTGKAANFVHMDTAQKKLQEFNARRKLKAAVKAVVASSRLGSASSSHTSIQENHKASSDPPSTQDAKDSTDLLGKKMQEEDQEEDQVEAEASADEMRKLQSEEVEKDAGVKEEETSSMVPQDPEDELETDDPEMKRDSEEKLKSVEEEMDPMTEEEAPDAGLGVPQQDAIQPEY",
  "assay": "affinity purification with mass spectrometry; co-IP with CaMK4 Ab or rabbit IgG from RAW264.7 cells, supernatants analysed by LC-MS/MS",
  "note": "Results are given in words; binding and its absence hold for the method and conditions named. In cells and extracts the contact can be indirect. A yes stands for co-enrichment or nearness to the bait. Other partners may have been found.",
  "data": [
    {"substance": "adenylyl cyclase 1 (ADCY1), mouse (from UniProt O88444 1-1118) (enzyme)", "values": [
      {"measurement": "binding", "value": "binds"}
    ]}
  ]
}
